Reference: PMC7044199
Results are given in words; binding and its absence hold for the method and conditions named. Binding seen in cells or lysates may run through a third protein. Some binding calls cover weakened binding; strength is not graded here.

Protein sequences, listed by entry. Tags and fused reporters are not part of them.
UniProt P19474: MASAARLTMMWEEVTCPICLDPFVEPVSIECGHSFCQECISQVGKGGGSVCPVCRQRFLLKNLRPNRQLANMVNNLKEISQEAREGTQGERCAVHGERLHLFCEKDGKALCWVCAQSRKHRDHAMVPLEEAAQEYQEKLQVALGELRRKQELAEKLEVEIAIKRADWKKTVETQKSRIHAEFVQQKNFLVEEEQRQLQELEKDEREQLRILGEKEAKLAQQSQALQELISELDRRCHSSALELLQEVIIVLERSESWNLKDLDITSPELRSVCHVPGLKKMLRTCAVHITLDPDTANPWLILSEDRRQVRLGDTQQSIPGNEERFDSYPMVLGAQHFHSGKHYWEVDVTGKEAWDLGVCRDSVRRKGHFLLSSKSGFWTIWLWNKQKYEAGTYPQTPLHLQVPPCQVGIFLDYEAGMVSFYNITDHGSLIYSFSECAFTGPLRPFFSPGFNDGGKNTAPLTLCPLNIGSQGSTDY

Molecular target: Tripartite motif-containing protein 21 (TRIM21), endogenous (human (endogenous in MCF-7, T-47D, MDA-MB-231, MCF-10A)) (UniProt P19474)
Experiment: co-IP; endogenous proteins in lysates of MCF-7, T-47D, MDA-MB-231 and MCF-10A cells; lysis buffer 50 mM Tris-HCl pH 8.0, 0.5% NP40, 150 mM NaCl, 1 mM EDTA, 0.5% sodium deoxycholate; 3 ug antibody overnight at 4 C, protein A/G Sepharose; IP with SET7/9 antibodies and the reciprocal IP with TRIM21 …

- binding: binds
B1: SET7/9, endogenous (enzyme, UniProt Q8WTS6 1-366)
chain: MDSDDEMVEEAVEGHLDDDGLPHGFCTVTYSSTDRFEGNFVHGEKNGRGKFFFFDGSTLEGYYVDDALQGQGVYTYEDGGVLQGTYVDGELNGPAQEYDTDGRLIFKGQYKDNIRHGVCWIYYPDGGSLVGEVNEDGEMTGEKIAYVYPDERTALYGKFIDGEMIEGKLATLMSTEEGRPHFELMPGNSVYHFDKSTSSCISTNALLPDPYESERVYVAESLISSAGEGLFSKVAVGPNTVMSFYNGVRITHQEVDSRDWALNGNTLSLDEETVIDVPEPYNHVSKYCASLGHKANHSFTPNCIYDMFVHPRFGPIKCIRTLRAVEADEELTVAYGYDHSPPGKSGPEAPEWYQVELKAFQATQQK
